In PMC7645262 one finds binding data, which are given here for 2 substances.

The chains behind the UniProt entries cited, without tags or fusion partners. Residues count along the entry.
UniProt Q03431, residues 27-593: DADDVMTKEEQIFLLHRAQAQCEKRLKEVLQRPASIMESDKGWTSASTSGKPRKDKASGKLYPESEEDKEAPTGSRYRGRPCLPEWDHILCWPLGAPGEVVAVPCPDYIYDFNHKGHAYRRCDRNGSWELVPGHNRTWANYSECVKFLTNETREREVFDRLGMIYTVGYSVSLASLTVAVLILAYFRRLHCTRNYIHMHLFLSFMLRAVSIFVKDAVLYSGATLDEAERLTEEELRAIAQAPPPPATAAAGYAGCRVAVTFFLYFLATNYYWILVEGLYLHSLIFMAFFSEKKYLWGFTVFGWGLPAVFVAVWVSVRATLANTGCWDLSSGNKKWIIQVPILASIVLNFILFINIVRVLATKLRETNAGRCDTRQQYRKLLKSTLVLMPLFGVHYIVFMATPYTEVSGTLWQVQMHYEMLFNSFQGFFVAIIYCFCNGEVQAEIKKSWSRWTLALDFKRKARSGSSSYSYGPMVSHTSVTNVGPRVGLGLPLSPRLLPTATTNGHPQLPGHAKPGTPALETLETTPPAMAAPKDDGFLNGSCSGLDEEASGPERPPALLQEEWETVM
UniProt P17870: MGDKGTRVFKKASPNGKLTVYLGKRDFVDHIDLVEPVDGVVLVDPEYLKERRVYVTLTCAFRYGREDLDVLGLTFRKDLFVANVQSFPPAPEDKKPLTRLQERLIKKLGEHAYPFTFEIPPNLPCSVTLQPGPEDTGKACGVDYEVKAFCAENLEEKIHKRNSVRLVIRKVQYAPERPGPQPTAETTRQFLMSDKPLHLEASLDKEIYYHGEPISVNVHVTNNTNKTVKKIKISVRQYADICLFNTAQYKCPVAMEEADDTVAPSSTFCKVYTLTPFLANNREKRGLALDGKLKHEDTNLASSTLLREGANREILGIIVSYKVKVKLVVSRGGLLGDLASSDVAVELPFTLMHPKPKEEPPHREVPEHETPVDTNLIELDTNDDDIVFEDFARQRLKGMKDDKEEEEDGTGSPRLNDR
UniProt P32120: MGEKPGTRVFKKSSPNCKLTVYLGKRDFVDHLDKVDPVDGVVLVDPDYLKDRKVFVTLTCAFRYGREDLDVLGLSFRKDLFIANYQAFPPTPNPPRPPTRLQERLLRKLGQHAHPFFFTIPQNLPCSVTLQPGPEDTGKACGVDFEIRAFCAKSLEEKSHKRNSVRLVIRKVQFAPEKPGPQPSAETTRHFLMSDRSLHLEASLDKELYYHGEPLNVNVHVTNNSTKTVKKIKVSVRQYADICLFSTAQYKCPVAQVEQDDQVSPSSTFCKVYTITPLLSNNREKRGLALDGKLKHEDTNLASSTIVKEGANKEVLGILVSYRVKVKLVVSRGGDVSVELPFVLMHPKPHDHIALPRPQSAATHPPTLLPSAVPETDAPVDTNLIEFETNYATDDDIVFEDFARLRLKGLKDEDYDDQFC

No constants are given. Whether binding was seen depends on the method and setting. Binding seen in cells or lysates may run through a third protein. Some entries that bind do so weakly or less than the wild type.

The assay has as its target PTH1R-LgBiT (UniProt Q03431). Kind of assay: split reporter; NanoBiT complementation in live HEK293T cells, SmBiT-βarr1/2 (or Bpa variants) with PTH1R-LgBiT; 200 nM PTH(1-34), luminescence monitored 45 min at 37°C.

For the substance SmBiT-βarr1 (from UniProt P17870 1-418), the binding result is “binds”.

For the substance SmBiT-βarr2 (from UniProt P32120 1-420), the binding result is on record as “binds”.
